“And” between values parts separate entries of the source, which are not always exact repeats. Identical values can stand only once.
What was measured:
[1] = Matrix effects on quantification (untreated human saliva); settings: for Mean concentration Control Blank (endogenous level) / Concentration, Control Blank (endogenous level): unspiked; for Concentration: individual values
[2] = Quality controls: accuracy and precision, batch acceptance (cholestyramine-treated human saliva); settings: for Mean quality control concentration: Table 33, n 9; for % Bias QC-Mid, batch acceptance / Mean concentration QC-Mid, batch acceptance / % Bias QC-High, batch acceptance / Mean concentration QC-High, batch acceptance: run 35
[3] = Cholestyramine-Treated Human Saliva, QC-High, nominal 80.0 ng/mL
[4] = Cholestyramine-Treated Human Saliva, QC-Mid, nominal 8.00 ng/mL
[5] = Untreated Human Saliva, Control Blank (endogenous level)
[6] = Untreated Human Saliva, QC-High, spiked 80.0 ng/mL
[7] = cholestyramine-treated human saliva, nominal 8.00 ng/mL, run 34
[8] = cholestyramine-treated human saliva, nominal 80.0 ng/mL, run 34
[9] = untreated human saliva, nominal 80.0 ng/mL, run 34
[10] = cholestyramine-treated human saliva, nominal 8.00 ng/mL
[11] = cholestyramine-treated human saliva, nominal 80.0 ng/mL
[12] = nominal 80.0 ng/mL, cholestyramine-treated human saliva, run 34
[13] = nominal 800 ng/mL, cholestyramine-treated human saliva, run 34
[14] = nominal 800 ng/mL, untreated human saliva, run 34
[15] = nominal 80.0 ng/mL, cholestyramine-treated human saliva
[16] = nominal 800 ng/mL, cholestyramine-treated human saliva
[17] = nominal 8.00 ng/mL, one value per run 31, 32, 33

C[C@H](CCC(=O)NCCS(=O)(=O)O)[C@H]1CC[C@H]2[C@@H]3[C@H](O)C[C@@H]4C[C@H](O)CC[C@]4(C)[C@H]3CC[C@]12C [Taurochenodeoxycholic Acid, Taurochenodeoxycholic acid]
% Bias QC-Mid ([1]; Cholestyramine-Treated Human Saliva, nominal 8.00 ng/mL, Run 34): 4.7%
Mean concentration QC-Mid ([1]; Cholestyramine-Treated Human Saliva, nominal 8.00 ng/mL, Run 34, n 3): 8.37 ng/mL
Concentration QC-Mid ([1]; Cholestyramine-Treated Human Saliva, nominal 8.00 ng/mL, Run 34, replicate): 8.50 ng/mL and 8.41 ng/mL and 8.21 ng/mL
% Bias QC-High ([1]; Cholestyramine-Treated Human Saliva, nominal 80.0 ng/mL, Run 34): 3.1%
Mean concentration QC-High ([1]; Cholestyramine-Treated Human Saliva, nominal 80.0 ng/mL, Run 34, n 3): 82.5 ng/mL
Concentration QC-High ([1]; Cholestyramine-Treated Human Saliva, nominal 80.0 ng/mL, Run 34, replicate): 80.3 ng/mL and 83.1 ng/mL and 84.1 ng/mL
Mean concentration Control Blank (endogenous level) ([1]; Untreated Human Saliva, Run 34, n 6): BQL (Below quantitation limit (<0.500 ng/mL))
Concentration, Control Blank (endogenous level) ([1]; Untreated Human Saliva, Run 34, replicate): BQL (Below quantitation limit (<0.500 ng/mL))
% Bias QC-High ([1]; Untreated Human Saliva, nominal 80.0 ng/mL, Run 34): 5.6%
Mean concentration QC-High ([1]; Untreated Human Saliva, nominal 80.0 ng/mL, Run 34, n 6): 84.5 ng/mL
Concentration QC-High ([1]; Untreated Human Saliva, nominal 80.0 ng/mL, Run 34, replicate): 85.5 ng/mL and 82.5 ng/mL and 85.3 ng/mL and 85.8 ng/mL and 84.1 ng/mL and 83.7 ng/mL
Mean quality control concentration ([2]; QC-High, nominal 80.0 ng/mL): 82.3 ng/mL
Mean quality control concentration ([2]; QC-Mid, nominal 8.00 ng/mL): 7.84 ng/mL
Concentration, batch acceptance QC-Mid ([2]; nominal 8.00 ng/mL, Analytical Run 35, cholestyramine-treated human saliva, replicate): 9.45 ng/mL and 8.01 ng/mL and 8.00 ng/mL
Intra-Run % Bias, QC-High ([2]; nominal 80.0 ng/mL, Run 31): 23.0%
Intra-Run % Bias, QC-High ([2]; nominal 80.0 ng/mL, Run 32): 13.0%
Intra-Run % Bias, QC-High ([2]; nominal 80.0 ng/mL, Run 33): 5.8%

CC(CCC(=O)NCC(=O)O)C1CCC2C3CCC4CC(O)CCC4(C)C3CC(O)C12C (centres unmarked) [Glycodeoxycholic Acid, Glycodeoxycholic acid]
% Bias [1, 3]: −3.1%
Concentration, Mean [1, 3]: 77.5 ng/mL
Concentration [1, 3]: 75.7 ng/mL and 77.8 ng/mL and 79.1 ng/mL
% Bias [1, 4]: 9.5%
Concentration, Mean [1, 4]: 8.76 ng/mL
Concentration [1, 4]: 8.93 ng/mL and 8.91 ng/mL and 8.45 ng/mL
Concentration, Mean [1, 5]: BQL (Below quantitation limit (<0.500 ng/mL))
Concentration [1, 5]: BQL (Below quantitation limit (<0.500 ng/mL))
% Bias [1, 6]: −4.6%
Concentration, Mean [1, 6]: 76.3 ng/mL
Concentration [1, 6]: 77.2 ng/mL and 73.8 ng/mL and 76.5 ng/mL and 77.3 ng/mL (2×) and 75.7 ng/mL
Inter-Run % CV ([2]; QC-High, nominal 80.0 ng/mL): 6.9%
Inter-Run Mean ([2]; QC-High, nominal 80.0 ng/mL): 82.9 ng/mL
Inter-Run % CV ([2]; QC-LLOQ, nominal 0.500 ng/mL): 8.6%
Inter-Run Mean ([2]; QC-LLOQ, nominal 0.500 ng/mL): 0.538 ng/mL
Inter-Run % CV ([2]; QC-Mid, nominal 8.00 ng/mL): 6.2%
Inter-Run Mean ([2]; QC-Mid, nominal 8.00 ng/mL): 8.47 ng/mL

C[C@H](CCC(=O)NCCS(=O)(=O)O)[C@H]1CC[C@H]2[C@@H]3CC[C@@H]4C[C@H](O)CC[C@]4(C)[C@H]3C[C@H](O)[C@]12C [Taurodeoxycholic Acid, Taurodeoxycholic acid]
% Bias QC-Mid [1, 7]: 0.1%
Concentration QC-Mid [1, 7]: 8.14 ng/mL and 7.94 ng/mL and 7.95 ng/mL
Mean concentration QC-Mid [1, 7]: 8.01 ng/mL
% Bias QC-High [1, 8]: −1.0%
Concentration QC-High [1, 8]: 78.8 ng/mL and 78.2 ng/mL and 80.5 ng/mL
Mean concentration QC-High [1, 8]: 79.2 ng/mL
% Bias QC-High [1, 9]: 0.9%
Concentration QC-High [1, 9]: 82.4 ng/mL and 77.7 ng/mL and 79.8 ng/mL and 80.1 ng/mL and 81.8 ng/mL and 82.3 ng/mL
Mean concentration QC-High [1, 9]: 80.7 ng/mL
Concentration, Control Blank (endogenous level) ([1]; untreated human saliva, run 34): BQL (Below quantitation limit (<0.500 ng/mL))
Mean concentration Control Blank (endogenous level) ([1]; untreated human saliva, run 34): BQL (Below quantitation limit (<0.500 ng/mL))
Inter-Run % CV ([2]; QC-High, nominal 80.0 ng/mL): 7.2%
Inter-Run Mean ([2]; QC-High, nominal 80.0 ng/mL): 85.0 ng/mL
Inter-Run % CV ([2]; QC-LLOQ, nominal 0.500 ng/mL): 8.3%
Inter-Run Mean ([2]; QC-LLOQ, nominal 0.500 ng/mL): 0.553 ng/mL
Inter-Run % CV ([2]; QC-Mid, nominal 8.00 ng/mL): 6.6%
Inter-Run Mean ([2]; QC-Mid, nominal 8.00 ng/mL): 8.33 ng/mL
Batch Acceptance Quality Controls Concentration, Mean ([2]; Table 24, QC-High 80.0 ng/mL): 85.5 ng/mL
Batch Acceptance Quality Controls Concentration, Mean ([2]; Table 24, QC-Mid 8.00 ng/mL): 8.12 ng/mL
% Bias QC-Mid, batch acceptance [2, 10]: 6.6%
Mean concentration QC-Mid, batch acceptance [2, 10]: 8.53 ng/mL
% Bias QC-High, batch acceptance [2, 11]: 5.3%
Mean concentration QC-High, batch acceptance [2, 11]: 84.2 ng/mL

C[C@H](CCC(=O)O)[C@H]1CC[C@H]2[C@@H]3[C@H](O)C[C@@H]4C[C@H](O)CC[C@]4(C)[C@H]3CC[C@]12C [Chenodeoxycholic Acid, Chenodeoxycholic acid]
% Bias QC-Mid [1, 12]: 14.5%
Mean concentration QC-Mid [1, 12]: 91.6 ng/mL
Concentration QC-Mid ([1]; nominal 80.0 ng/mL, cholestyramine-treated human saliva, run 34, single determinations): 91.6 ng/mL and 88.9 ng/mL and 94.2 ng/mL
% Bias QC-High [1, 13]: −10.3%
Mean concentration QC-High [1, 13]: 718 ng/mL
Concentration QC-High ([1]; nominal 800 ng/mL, cholestyramine-treated human saliva, run 34, single determinations): 717 ng/mL and 719 ng/mL
% Bias QC-High [1, 14]: −1.9%
Mean concentration QC-High [1, 14]: 785 ng/mL
Concentration QC-High ([1]; nominal 800 ng/mL, untreated human saliva, run 34, single determinations): 708 ng/mL and 826 ng/mL and 703 ng/mL and 877 ng/mL and 870 ng/mL and 724 ng/mL
Mean concentration Control Blank ([1]; untreated human saliva, not spiked (endogenous level), run 34): BQL (BQL: Below quantitation limit (5.00 ng/mL))
Concentration Control Blank ([1]; untreated human saliva, not spiked (endogenous level), run 34, single determinations): BQL (BQL: Below quantitation limit (5.00 ng/mL))
Intra-Run Mean concentration QC-LLOQ ([2]; nominal 5.00 ng/mL, cholestyramine-treated human saliva, runs 31, 32, 33): 6.18 ng/mL and 4.68 ng/mL and 4.63 ng/mL
Inter-Run % Bias QC-Mid [2, 15]: 9.3%
% Bias QC-Mid, batch acceptance [2, 15]: 23.6%
Mean concentration QC-Mid, batch acceptance [2, 15]: 98.9 ng/mL
Intra-Run Mean concentration QC-Mid ([2]; nominal 80.0 ng/mL, cholestyramine-treated human saliva, runs 31, 32, 33): 92.1 ng/mL and 91.5 ng/mL and 78.8 ng/mL
Inter-Run % Bias QC-High [2, 16]: −6.0%
% Bias QC-High, batch acceptance [2, 16]: −11.7%
Mean concentration QC-High, batch acceptance [2, 16]: 707 ng/mL
Intra-Run Mean concentration QC-High ([2]; nominal 800 ng/mL, cholestyramine-treated human saliva, runs 31, 32, 33): 771 ng/mL and 768 ng/mL and 718 ng/mL

C[C@H](CCC(=O)NCCS(=O)(=O)O)[C@H]1CC[C@H]2[C@@H]3[C@H](O)C[C@@H]4C[C@H](O)CC[C@]4(C)[C@H]3C[C@H](O)[C@]12C [Taurocholic Acid, Taurocholic acid]
% Bias QC-Mid [1, 7]: 3.3%
Concentration QC-Mid [1, 7]: 8.81 ng/mL and 7.99 ng/mL and 7.98 ng/mL
Mean concentration QC-Mid [1, 7]: 8.26 ng/mL
% Bias QC-High [1, 8]: 1.0%
Concentration QC-High [1, 8]: 81.7 ng/mL and 80.3 ng/mL
Mean concentration QC-High [1, 8]: 80.8 ng/mL
% Bias QC-High [1, 9]: 1.7%
Concentration QC-High [1, 9]: 81.2 ng/mL and 80.2 ng/mL and 82.8 ng/mL and 81.6 ng/mL and 82.2 ng/mL
Mean concentration QC-High [1, 9]: 81.4 ng/mL
Concentration, Control Blank (endogenous level) ([1]; untreated human saliva, run 34): BQL (Below quantitation limit (<0.500 ng/mL))
Mean concentration Control Blank (endogenous level) ([1]; untreated human saliva, run 34): BQL (Below quantitation limit (<0.500 ng/mL))
Batch Acceptance Quality Controls Concentration, Mean ([2]; Table 27, QC-High 80.0 ng/mL): 85.9 ng/mL
Batch Acceptance Quality Controls Concentration, Mean ([2]; Table 27, QC-Mid 8.00 ng/mL): 8.18 ng/mL
% Bias QC-Mid, batch acceptance [2, 10]: −0.4%
Mean concentration QC-Mid, batch acceptance [2, 10]: 7.97 ng/mL
% Bias QC-High, batch acceptance [2, 11]: −3.0%
Mean concentration QC-High, batch acceptance [2, 11]: 77.6 ng/mL
Inter-Run % Bias QC-Mid ([2]; nominal 8.00 ng/mL): −1.9%
Intra-Run % Bias QC-Mid [2, 17]: 2.7% and −1.8% and −6.6%
Intra-Run Mean QC-Mid [2, 17]: 8.21 ng/mL and 7.86 ng/mL and 7.48 ng/mL
Inter-Run % Bias QC-High ([2]; nominal 80.0 ng/mL): 2.5%

C[C@H](CCC(=O)O)[C@H]1CC[C@H]2[C@@H]3[C@H](O)C[C@@H]4C[C@H](O)CC[C@]4(C)[C@H]3C[C@H](O)[C@]12C [Cholic Acid, Cholic acid]
% Bias [1, 3]: −0.7%
% Bias [1, 4]: 2.1%
% Bias [1, 6]: −0.1%
